Assay results taken from US8476434B2, “Protein kinase modulators and method of use” (Amgen Inc., priority 2004, dated 2013).
Some entries share one result that the patent states for a list of compounds.

Protein sequences, listed by entry. Tags and fused reporters are not part of them. Residues count along the entry.
UniProt Q02763, 23-1124: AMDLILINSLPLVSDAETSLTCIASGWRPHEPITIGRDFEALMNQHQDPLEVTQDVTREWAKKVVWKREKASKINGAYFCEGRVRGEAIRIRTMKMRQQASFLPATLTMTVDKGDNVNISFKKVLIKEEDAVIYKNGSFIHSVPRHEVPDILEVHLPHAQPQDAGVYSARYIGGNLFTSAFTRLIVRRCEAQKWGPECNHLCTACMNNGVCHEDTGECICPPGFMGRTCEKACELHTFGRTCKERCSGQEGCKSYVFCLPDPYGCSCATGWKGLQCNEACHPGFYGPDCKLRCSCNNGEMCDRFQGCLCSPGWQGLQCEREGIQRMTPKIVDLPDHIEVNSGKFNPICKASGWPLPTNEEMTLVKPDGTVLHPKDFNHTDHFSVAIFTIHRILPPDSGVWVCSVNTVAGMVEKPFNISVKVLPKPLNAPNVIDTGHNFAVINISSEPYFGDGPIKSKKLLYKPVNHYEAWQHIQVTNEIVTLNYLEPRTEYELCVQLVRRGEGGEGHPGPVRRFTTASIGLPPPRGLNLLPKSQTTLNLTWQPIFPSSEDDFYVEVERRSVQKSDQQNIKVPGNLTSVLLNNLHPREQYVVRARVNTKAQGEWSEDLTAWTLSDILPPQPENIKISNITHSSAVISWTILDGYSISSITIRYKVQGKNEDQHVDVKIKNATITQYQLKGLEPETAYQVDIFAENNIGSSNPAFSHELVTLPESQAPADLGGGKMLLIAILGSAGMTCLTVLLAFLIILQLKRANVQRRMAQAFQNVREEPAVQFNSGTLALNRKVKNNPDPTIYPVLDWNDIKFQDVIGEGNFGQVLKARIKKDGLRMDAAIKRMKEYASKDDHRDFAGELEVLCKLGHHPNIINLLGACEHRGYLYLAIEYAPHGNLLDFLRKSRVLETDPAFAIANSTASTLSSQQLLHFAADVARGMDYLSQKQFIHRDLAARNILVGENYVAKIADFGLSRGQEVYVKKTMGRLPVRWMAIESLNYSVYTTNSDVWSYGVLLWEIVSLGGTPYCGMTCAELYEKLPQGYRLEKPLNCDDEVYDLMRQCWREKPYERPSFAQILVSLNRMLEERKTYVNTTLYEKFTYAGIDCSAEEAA

What was measured:
Tie-2 kinase enzyme = Tie-2 kinase enzyme (Homo sapiens, UniProt Q02763); assay: Tie-2 Homogenous Time Resolved Fluorescent (HTRF) kinase assay; format: biochemical; conditions: read-out: IC50's for the inhibition of Tie-2 as measured by the HTRF assay
AuroraA-TPX2 KD GST = target: T1, AuroraA-TPX2 KD GST (Homo sapiens, UniProt O14965); assay: AuroraA-TPX2 Homogeneous Time Resolved Fluorescent (HTRF) kinase assay; format: biochemical; conditions: read-out: activity in the Aurora kinase A HTRF assay
T1 construct: AuroraA-TPX2 KD GST; GST
T1 sequence (O14965 133-383 limits assumed): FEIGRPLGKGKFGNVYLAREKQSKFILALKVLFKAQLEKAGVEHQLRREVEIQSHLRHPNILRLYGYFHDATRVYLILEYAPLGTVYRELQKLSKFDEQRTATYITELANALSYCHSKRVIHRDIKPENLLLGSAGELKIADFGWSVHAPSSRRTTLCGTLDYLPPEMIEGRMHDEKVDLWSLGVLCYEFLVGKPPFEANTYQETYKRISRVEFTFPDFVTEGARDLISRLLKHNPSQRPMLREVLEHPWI
T1 sequence (Q9ULW0 1-43 partner limits assumed): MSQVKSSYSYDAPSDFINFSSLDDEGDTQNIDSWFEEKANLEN

Row | Structure (SMILES) | IC50 (Tie-2 kinase enzyme) [µM] | IC50 (AuroraA-TPX2 KD GST) [µM]
1 | O=C(Cc1cccc(C(F)(F)F)c1)Nc1ccc(Oc2ncccc2-c2ccncn2)c2ncccc12 [Example 698, N-(8-((3-(4-pyrimidinyl)-2-pyridinyl)oxy)-5-quinolinyl)-2-(3-(trifluoromethyl)phenyl)acetamide] | < 5 | < 10
2 | Cc1cc(NC(=O)Nc2cccc(SC(F)(F)F)c2)ccc1Oc1ncccc1-c1ccncn1 [Example 699, N-(3-methyl-4-((3-(4-pyrimidinyl)-2-pyridinyl)oxy)phenyl) N′-(3-((trifluoromethyl)sulnyl)phenyl)urea] | < 5 | < 10
3 | Cc1cc(NC(=O)Nc2cccc(Br)c2)ccc1Oc1ncccc1-c1ccncn1 [Example 700, N-(3-bromophenyl)-N′-(3-methyl-4-((3-(4-pyrimidinyl)-2-pyridinyl)oxy)phenyl)urea] | < 5 | < 10
4 | CNc1nccc(-c2cccnc2Oc2ccc(NC(=O)Nc3cc(C(F)(F)F)ccc3F)cc2C)n1 [Example 701, N-(2-fluoro-5-(trifluoromethyl)phenyl)-N′-(3-methyl-4-((3-(2-(methylamino)-4-pyrimidinyl)-2-pyridinyl)oxy)phenyl)urea] | < 5 | < 10
5 | COc1ccc(C2CCCCC2)cc1NC(=O)Nc1ccc(Oc2ncccc2-c2ccncn2)c(C)c1 [Example 703, N-(5-cyclohexyl-2-(methyloxy)phenyl)-N′-(3-methyl-4-((3-(4-pyrimidinyl)-2-pyridinyl)oxy)phenyl)urea] | < 5 | < 10
6 | O=C(Nc1ccc(Oc2ncccc2-c2ccncn2)c2ccccc12)c1ccccc1 [Example 704, N-(4-((3-(4-pyrimidinyl)-2-pyridinyl)oxy)-1-naphthalenyl)benzamide] | < 5 | < 10
7 | CNc1nccc(-c2cccnc2Oc2ccc(NC(=O)Nc3cc(C(F)(F)F)ccc3F)c3ccccc23)n1 [Example 705, N-(2-fluoro-5-(trifluoromethyl)phenyl)-N′-(4-((3-(2-(methylamino)-4-pyrimidinyl)-2-pyridinyl)oxy)-1-naphthalenyl)urea] | < 5 | < 10
8 | CNc1nccc(-c2cccnc2Oc2ccc(NC(=O)Nc3cc(C(F)(F)F)ccc3F)c(C)c2C)n1 [Example 707, N-(2,3-dimethyl-4-((3-(2-(methylamino)-4-pyrimidinyl)-2-pyridinyl)oxy)phenyl)-N′-(2-fluoro-5-(trifluoromethyl)phenyl)urea] | < 5 | < 10
9 | CNc1nccc(-c2cccnc2Oc2ccc(NC(=O)Nc3cc(C(F)(F)F)cc(C(F)(F)F)c3)c(C)c2C)n1 [Example 708, N-(3,5-bis(trifluoromethyl)phenyl)-N′-(2,3-dimethyl-4-((3-(2-(methylamino)-4-pyrimidinyl)-2-pyridinyl)oxy)phenyl) urea] | < 5 | < 10
10 | CNc1nccc(-c2cccnc2Oc2ccc(NC(=O)c3ccccc3)cc2C)n1 [Example 779, N-(3-methyl-4-((3-(2-(methylamino)-4-pyrimidinyl)-2-pyridinyl)oxy)phenyl)benz-amide] | < 5 | < 10
11 | CNc1nccc(-c2cccnc2Oc2ccc(NC(=O)Nc3cccc(OC)c3)cc2C)n1 [Example 784, N-(3-methyl-4-((3-(2-(methylamino)-4-pyrimidinyl)-2-pyridinyl)oxy)phenyl)-N′-(3-(methyloxy)phenyl)urea] | < 5 | < 10
12 | CNc1nccc(-c2cccnc2Oc2ccc(NC(=O)Nc3cccc(C#N)c3)cc2C)n1 [Example 785, N-(3-cyanophenyl)-N′-(3-methyl-4-((3-(2-(methylamino)-4-pyrimidinyl)-2-pyridinyl)oxy)phenyl)urea] | < 5 | < 10
13 | CNc1nccc(-c2cccnc2Oc2ccc(NC(=O)Nc3cc(F)cc(C(F)(F)F)c3)cc2C)n1 [Example 794, N-(3-fluoro-5-(trifluoromethyl)phenyl)-N′-(3-methyl-4-((3-(2-(methylamino)-4-pyrimidinyl)-2-pyridinyl)oxy)phenyl)urea] | < 5 | < 10
14 | CNc1ncnc(-c2cccnc2Oc2ccc(NC(=O)Nc3cc(C(F)(F)F)ccc3N(C)CCCN(C)C)c3ccccc23)n1 [Example 800, N-(2-((3-(dimethylamino)propyl) (methyl)amino)-5-(trifluoromethyl)phenyl)-N′-(4-((3-(4-(methylamino)-1,3,5-triazin-2-yl)-2-pyridinyl)oxy)-1-naphthalenyl)urea] | < 5 | < 10
15 | CNc1nccc(-c2cccnc2Oc2ccc(NC(=O)Nc3cccc(Br)c3)cc2C)n1 [Example 803, N-(3-bromophenyl)-N′-(3-methyl-4-((3-(2-(methylamino)-4-pyrimidinyl)-2-pyridinyl)oxy)phenyl)urea] | < 5 | < 10
16 | CNc1nccc(-c2cccnc2Oc2ccc(NC(=O)Nc3ccc4c(c3)OCO4)cc2C)n1 [Example 804, N-(1,3-benzodioxol-5-yl)-N′-(3-methyl-4-((3-(2-(methylamino)-4-pyrimidinyl)-2-pyridinyl)oxy)phenyl)urea] | < 5 | < 10
17 | CNc1nccc(-c2cccnc2Oc2ccc(NC(=O)c3cc4ccccc4[nH]3)cc2C)n1 [Example 805, N-(3-methyl-4-((3-(2-(methylamino)-4-pyrimidinyl)-2-pyridinyl)oxy)phenyl)-1H-indole-2-carboxamide] | < 5 | < 10
18 | CNc1nccc(-c2cccnc2Oc2ccc(NC(=O)Nc3cc(Cl)cc(Cl)c3)cc2C)n1 [Example 807, N-(3,5-dichlorophenyl)-N′-(3-methyl-4-((3-(2-(methylamino)-4-pyrimidinyl)-2-pyridinyl)oxy)phenyl)urea] | < 5 | < 10
19 | CNc1nccc(-c2cccnc2Oc2ccc(NC(=O)Nc3cc(Cl)ccc3C)cc2C)n1 [Example 808, N-(5-chloro-2-methylphenyl)-N′-(3-methyl-4-((3-(2-(methylamino)-4-pyrimidinyl)-2-pyridinyl)oxy)phenyl)urea] | < 5 | < 10
20 | CNc1nccc(-c2cccnc2Oc2ccc(NC(=O)Cc3cccc(C(F)(F)F)c3)cc2C)n1 [Example 809, N-(3-methyl-4-((3-(2-(methylamino)-4-pyrimidinyl)-2-pyridinyl)oxy)phenyl)-2-(3-(trifluoromethyl)phenyl)acet-amide] | < 5 | < 10
21 | CNc1nccc(-c2cccnc2Oc2ccc(NC(=O)c3cccc(C(F)(F)F)c3)cc2C)n1 [Example 810, N-(3-methyl-4-((3-(2-(methylamino)-4-pyrimidinyl)-2-pyridinyl)oxy)phenyl)-3-(trifluoromethyl)benzamide] | < 5 | < 10
22 | CNc1nccc(-c2cccnc2Oc2ccc(NC(=O)Nc3cc(C(F)(F)F)ccc3CN3CCN(C)CC3)cc2C)n1 [Example 815, N-(3-methyl-4-((3-(2-(methylamino)-4-pyrimidinyl)-2-pyridinyl)oxy)phenyl)-N′-(2-((4-methyl-1-piperazinyl)methyl)-5-(trifluoromethyl)phenyl)urea] | < 5 | < 10
23 | CCOc1cccc(NC(=O)Nc2ccc(Oc3ncccc3-c3ccnc(NC)n3)c(C)c2)c1 [Example 816, N-(3-(ethyloxy)phenyl)-N′-(3-methyl-4-((3-(2-(methylamino)-4-pyrimidinyl)-2-pyridinyl)oxy)phenyl)urea] | < 5 | < 10
